Experimental data: PMC10250209, “UV-DDB stimulates the activity of SMUG1 during base excision repair of 5-hydroxymethyl-2'-deoxyuridine moieties”
Results are given in words; binding and its absence hold for the method and conditions named. For part of these data: In cells and extracts the contact can be indirect. Some binding calls cover weakened binding; strength is not graded here. For part of these data: Tags and fused reporters may be left off the sequences shown.

Protein sequences, listed by entry. Tags and fused reporters are not part of them.
UniProt Q92466: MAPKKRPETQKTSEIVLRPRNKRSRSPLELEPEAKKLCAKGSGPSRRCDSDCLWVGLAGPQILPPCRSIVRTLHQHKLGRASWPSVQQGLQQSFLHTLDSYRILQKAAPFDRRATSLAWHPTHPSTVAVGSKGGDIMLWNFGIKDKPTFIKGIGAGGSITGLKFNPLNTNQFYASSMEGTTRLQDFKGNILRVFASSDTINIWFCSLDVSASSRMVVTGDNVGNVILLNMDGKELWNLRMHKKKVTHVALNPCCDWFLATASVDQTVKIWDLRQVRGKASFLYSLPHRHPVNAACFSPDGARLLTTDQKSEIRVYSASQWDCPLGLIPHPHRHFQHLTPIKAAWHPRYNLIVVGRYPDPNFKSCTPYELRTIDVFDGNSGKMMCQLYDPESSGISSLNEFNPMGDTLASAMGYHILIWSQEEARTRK
UniProt Q16531: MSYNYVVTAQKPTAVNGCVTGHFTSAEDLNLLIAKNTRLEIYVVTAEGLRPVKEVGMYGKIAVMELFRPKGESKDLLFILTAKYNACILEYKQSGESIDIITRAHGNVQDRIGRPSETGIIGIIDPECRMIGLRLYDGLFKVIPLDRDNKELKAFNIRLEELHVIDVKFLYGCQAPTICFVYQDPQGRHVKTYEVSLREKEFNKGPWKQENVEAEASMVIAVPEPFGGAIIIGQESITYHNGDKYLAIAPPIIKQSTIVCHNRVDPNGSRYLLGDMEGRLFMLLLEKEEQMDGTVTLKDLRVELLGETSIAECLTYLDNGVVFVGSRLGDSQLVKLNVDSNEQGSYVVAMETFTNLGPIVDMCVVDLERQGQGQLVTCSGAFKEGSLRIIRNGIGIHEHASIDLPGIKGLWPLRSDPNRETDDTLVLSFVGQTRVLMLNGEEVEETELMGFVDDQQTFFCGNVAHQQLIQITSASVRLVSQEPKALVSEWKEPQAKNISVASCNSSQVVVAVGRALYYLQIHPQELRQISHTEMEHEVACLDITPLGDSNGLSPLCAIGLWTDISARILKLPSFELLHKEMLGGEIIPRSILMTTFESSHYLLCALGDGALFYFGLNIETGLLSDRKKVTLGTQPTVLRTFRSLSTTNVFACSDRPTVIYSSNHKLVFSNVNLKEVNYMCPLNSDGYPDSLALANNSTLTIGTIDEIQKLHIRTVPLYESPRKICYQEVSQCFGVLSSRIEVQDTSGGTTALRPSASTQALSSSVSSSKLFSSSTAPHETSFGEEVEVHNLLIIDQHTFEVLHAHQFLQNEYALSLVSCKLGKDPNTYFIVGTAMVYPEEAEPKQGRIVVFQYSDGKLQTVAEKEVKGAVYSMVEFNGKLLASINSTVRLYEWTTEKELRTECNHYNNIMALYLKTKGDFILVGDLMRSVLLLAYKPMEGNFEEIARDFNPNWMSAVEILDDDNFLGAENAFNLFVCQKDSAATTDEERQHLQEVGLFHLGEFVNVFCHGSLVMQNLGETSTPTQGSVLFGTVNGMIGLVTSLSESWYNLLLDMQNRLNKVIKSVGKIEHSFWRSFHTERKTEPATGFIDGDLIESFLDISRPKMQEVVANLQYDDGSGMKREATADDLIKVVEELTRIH

Legend:
DDB2-Flag = DDB2-Flag (UniProt Q92466); test: tandem affinity co-purification (His-Trap Ni2+, anti-FLAG M2 gel) + SEC; DDB1-6xHis and DDB2-Flag co-expressed in Sf9 cells; Ni2+ column, then anti-FLAG gel, then HiLoad 16/60 Superdex 200 in 50 mM HEPES pH 7.5, 200 mM KCl, 1 mM EDTA, 2 mM DTT, 10% glycerol
DDB2-mCherry = DDB2-mCherry (UniProt Q92466); test: proximity ligation; U2OS cells transiently transfected with the tagged proteins; treated with 5.0 uM 5-hmdU for 15 min or 60 J/m2 UV-C; CSK extraction, fixed; primary antibodies to mCherry and GFP; PLA foci per nucleus

DDB1-6xHis (from UniProt Q16531 1-1140)
binding (DDB2-Flag): binds

GFP-DDB1 (from UniProt Q16531 1-1140)
binding (DDB2-mCherry): binds

B1: SMUG1-GFP (enzyme, UniProt Q53HV7 1-270)
chain: MPQAFLLGSIHEPAGALMEPQPCPGSLAESFLEEELRLNAELSQLQFSEPVGIIYNPVEYAWEPHRNYVTRYCQGPKEVLFLGMNPGPFGMAQTGVPFGEVSMVRDWLGIVGPVLTPPQEHPKRPVLGLECPQSEVSGARFWGFFRNLCGQPEVFFHHCFVHNLCPLLFLAPSGRNLTPAELPAKQREQLLGICDAALCRQVQLLGVRLVVGVGRLAEQRARRALAGLMPEVQVEGLLHPSPRNPQANKGWEAVAKERLNELGLLPLLLK
binding (DDB2-mCherry): binds
